According to US20250163183A1:
No constants are given. Whether binding was seen depends on the method and setting. Some entries that bind do so weakly or less than the wild type.

Amino acid sequences for entries named in this document (tags omitted). A change or cut given only in a name is not applied to a line headed by its entry.
UniProt P04070: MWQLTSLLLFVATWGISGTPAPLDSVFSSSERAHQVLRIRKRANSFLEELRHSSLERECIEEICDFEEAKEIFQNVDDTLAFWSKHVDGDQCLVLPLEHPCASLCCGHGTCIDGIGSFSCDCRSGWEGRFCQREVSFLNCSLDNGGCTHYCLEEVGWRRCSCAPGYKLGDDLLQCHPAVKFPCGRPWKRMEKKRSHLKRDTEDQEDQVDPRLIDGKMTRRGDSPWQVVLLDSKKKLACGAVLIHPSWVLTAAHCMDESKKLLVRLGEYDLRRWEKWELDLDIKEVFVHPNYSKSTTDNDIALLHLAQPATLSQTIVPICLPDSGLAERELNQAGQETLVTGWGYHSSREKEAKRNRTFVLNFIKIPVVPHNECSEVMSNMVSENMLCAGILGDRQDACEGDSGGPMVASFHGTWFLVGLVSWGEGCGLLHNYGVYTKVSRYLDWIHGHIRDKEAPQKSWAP

Columns and labels:
[1] = target: human activated protein C (APC) (human) (UniProt P04070); assay: ELISA
[2] = target: human activated protein C (APC) (human) (UniProt P04070); assay: ELISA, APC coated at 10 µg/mL, nanobody 2 µg/mL, HRP-anti-V5, n=3
[3] = target: human activated protein C (APC) (human) (UniProt P04070); assay: ELISA, coated APC
[4] = target: human activated protein C (APC) (human) (UniProt P04070); assay: ELISA screen, APC-coated wells, OD450, n=2 [Continued]
[5] = target: human activated protein C (APC) (human) (UniProt P04070); assay: ELISA screen, APC-coated wells, OD450, n=2

Row | binding [1] | binding [2] | binding [3] | binding [4] | binding [5] | Binder
1 | binds | binds | binds | binds |  | LP4 (SR16983-R3-P2-A06) (VHH, not shown: small tags and cut ends) VHH: QLQLVESGGGLVQAGGSLRLSCAASGSTFNFRIMGWYRQVPGKQRELVAVINSGGSADYTEDVKGRFTISRDDAKSTMYLQMNSLKPEDTAVYYCHAKKVEPTLFTTTYWGQGTQVTVSS
2 | binds |  |  |  | binds | SR16983-R2-P4-E06 (VHH) VHH: QLQLVESGGDLVQAGGSLRLSCAASGFTLDDYAIGWFRQAPGKEREGVSCIASSDGSTYYADSVKGRFTISTDNAKNTVYLQMNSLKPEDTAVYYCARGGLLLPKPELFDSWGQGTQVTVSS
3 | binds |  |  |  | binds | SR16983-R3-P5-F04 (VHH) VHH: QLQLVESGGGLVQAGGSLRLSCAASGFTLDDYAIGWFRQAPGKEREGVSCIASSDGSTYYADSVKGRFTISTDNAKNTVYLQMNSLKPEDTAVYYCARGGLLLPKPELFEYWGQGTQVTVSS
4 | binds |  |  |  | binds | SR16983-R2-P3-B05 (VHH) VHH: QLQLVESGGGLVQPGGSLRLSCAASGRTVGSYVMGWFRQAPGKEREFLAANSRSTGNTVYADSVKGRFTISRDDAKNTLYLQMNSLKPEDTAVYYCATRASINYNYANWPYWGQGTQVTVSS
5 | binds |  |  |  | binds | SR16983-R3-P3-E04 (VHH) VHH: QVQLVESGGGLVQAGGSLRLSCAASGRTFGSYVMGWFRQAPGKEREFVAAASRSTGNTVYPDSVKGRFTISRDDAKNTLYLQMNSLKPEDTAVYYCAARASINYNYANWPYWGQGTQVTVSS
6 | binds |  |  |  | binds | SR16983-R3P2A9 (VHH) VHH: QVQLVESGGGLVQAGGSLRLSCAASGRTVGSYVMGWFRQAPGKERELLAASSRSTGNTVYADSVKGRFTISRDDAKNTVFLQMNSLKPEDTAVYYCAARASINYNYANWPYWGQGTQVTVSP
7 | binds |  |  |  | binds | SR16983-R2-P4-D07 (VHH) VHH: QVQLVESGGGLVQAGGSLRLSCAASGRTIGSYVMGWFRQAPGKEREFVVAFSRSTGHISYADSVKGRFTISRDDAKNTLYLQMNSLKPEDTAVYYCAARASINYNYANWPYWGQGTQVTVSS
8 | binds |  |  |  | binds | SR16983-R3-P4-E06 (VHH) VHH: QLQLVESGGGLVQAGGSLRLSCAASGRTVGSYAVAWFRQAPGKERELLAASSRSTGNTVYADSVKGRFTIARDDAKNTLYLQMNSLKPEDTAVYYCAARASINYNYANWPYWGQGTQVTVSS
9 | binds |  |  |  | binds | SR16983-R3-P4-E04 (VHH) VHH: QVQLVESGGGLVQAGGSLRLSCAASGRTVGSYAVGWFRQAPGKEREFLAASSRSTGNTVYADSVKGRFTISRDDAKNTLYLQMNSLKPEDTAVYYCATRASINYNYANWPYWGQGTQVTVSS
10 | binds | binds | binds | binds |  | LP12 (SR16983-R3-P3-F06) (VHH, not shown: small tags and cut ends) VHH: QLQLVESGGGLVQAGDSLRLSCTSSGLTASTYAMAWFRQAPGKEREFVAVVDWKGDTTYANSVKGRFTLSRDNGKNTNYLQMNSLQPEDTALYYCAARGSPGYVARLYAHWGRGTQVTVSS
11 | binds | binds | binds | binds |  | LP20 (SR16983-R4-P1-B07) (VHH, not shown: small tags and cut ends) VHH: QLQLVESGGGLVQAGGSLRLSCTASGSTVRVTAGGWYRQTPGNERELVADIDNGGSTTYADSVKGRFTISRDNAKNAVDLQMNSLKPEDTAVYRCFVIAIPDSAPRPRAYWGQGTEVTVSS
12 | binds |  |  |  | binds | SR16983-R2P1C11 (VHH) VHH: QLQLVESGGGLVQSGGSLRLSCTASGSTVRVTAGGWYRQAPGNERELVADIDNGGRPTYADSVKGRFTISRDNAKNAVDLQMNNLKPEDTAVYYCFVIAIPDSAPRPRAYWGQGTQVTVSS
13 | binds |  |  |  | binds | SR16983-R2-P4-G02 (VHH) VHH: QLQLVESGGGLVQAGGSLRLSCAASGTTFSFVYMGWYRQAPGNQRDLVARISSDGSTNYADSVKGRFTISGDNAKNTVYLQMNSLRPEDTARYYCFYNGHLNKWGQGTQVTVSS
14 | binds |  |  |  | binds | SR16983-R2-P2-F07 (VHH) VHH: QLQLVESGGGLVQAGGSLRLSCAASGSTFSFNYMGWYRQAPGNQRDLVARISSGGITNYADSVKGRFTISGDNAKDTVYLQMNSLKPEDTARYYCFYNGYLNKWGQGTQVTVSS
15 | binds | binds | binds | binds |  | LP3 (SR16983-R2-P4-E09) (VHH, not shown: small tags and cut ends) VHH: QVQLVESGGGLVQPGGSLTLSCAASGTIESINDMGWYRQAPGKQRELVAAITSGGSTNYADSVKGRFTISRDNAKNTVYLQMNSLKPEDTAVYYCNAEVKRHYYYDSAGYRYWGQGTQVTVSS
16 | binds |  |  |  | binds | SR16983-R3-P2-F07 (VHH) VHH: QLQLVESGGGLVQAGGSLRLSCAASGTTFDMNSMGWYRQAPGFKRDLVATISIGGDTNYADSVKGRFTISRDNAKNTVYMQMNSLKPEDTAVYYCNAERIWPNRRSFWGQGTQVTVSS
17 | binds |  |  |  | binds | SR16983-R3P2E7 (VHH) VHH: QLQLVESGGGLVQAGGSLRLSCVASGTTFTIEDIGWYRLAPGKQRELVAIISGGNTNYADSVKGRFTISRDNAKNTVFLQMNSLKPEDTAVYYCNARTKATAKWGRGIQVTVSS
18 | binds | binds | binds |  | binds | LP19 (SR16983-R4-P1-B06) (VHH, not shown: small tags and cut ends) VHH: QLQLVESGGGEVQAGESLRLSCAASGSTFSINVFAWYRDYPGKQRELVAVIGRSGTPRYADSVKGRFTISRDNAKNTVYLQMNSLEPEDTAVYYCHLGDTWGQGTQVTVSS
19 | binds |  |  |  | binds | SR16983-R3-P5-C09 (VHH) VHH: QLQLVESGGGLVQPGGSLRLSCAASGFTFSTKWMYWVRQGPGKGLERVAAIDASGGSTYYADSVKGRFTISRDNSKNTLYLQMNSLESADTAVYYCARSEGGQFRGRGTQVTVSS
20 | binds | binds | binds | binds |  | LP18 (SR16983-R4-P1-A11) (VHH, not shown: small tags and cut ends) VHH: QLQLVESGGGLVQPGGSLRLSCAASGFTFSTKWMYWVRQGPGKGLERVAAIDAGGTSTYYADSVKGRFTISRDNSENTVYLQMNSLESADTAVYYCARSEGGLFRGRGTQVTVSA
21 | binds |  |  |  | binds | SR16983-R3P2H10 (VHH) VHH: QLQLVESGGGLVQPGGSLRLSCAASGFTFSTKWMYWVRQGPGKGLERVAAIDAGGGSTYYADSVKGRFTISRDNSENTVYLQMNSLESADTAVYYCARSEGGLFRGRGTQVTVSA
22 | binds | binds | binds | binds |  | LP10 (SR16983-R3-P3-E06) (VHH, not shown: small tags and cut ends) VHH: QVQLVESGGGLVQAGGSLRLSCAASGTIESINDMGWYRQAPGKQRELVATVSSSGMTNYADSAKGRFTISRDNAKNTMYLQMNSLKPEDTAVYYCKAHISRSYYYDSLGYDYWGQGTQVTVSS
23 | binds | binds | binds | binds |  | LP9 (SR16983-R3-P3-B05) (VHH, not shown: small tags and cut ends) VHH: EVQLVESGGGLVQAGGSLRLSCAASGRTFVGSYVMGWFRQAPGKEREFVAASSRSTGNTVYLDSVKGRFTVSRDDAKNTLYLQMNSLKTEDTAVYYCATRASINYNAATWPYWGQGTQVTVSS
24 | binds | binds | binds | binds |  | LP11 (SR16983-R3-P3-F03) (VHH, not shown: small tags and cut ends) VHH: QLQLVESGGGLAQAGGSLRLSCAASGRTFVGSYVMGWFRQAPGKEREFVAASSRSTGNTVYLDSVKGRFTISRDDAKNTLFLQMNRLKPEDTAVYYCATRASVNYNYAAWPYWGQGTQVTVSS
25 | binds | binds | binds | binds |  | LP13 (SR16983-R3-P3-G08) (VHH, not shown: small tags and cut ends) VHH: QLQLVESGGGLVQAGGSLRLSCVASGTTFTIEDIGWHRQAPGKQLELVAVSRGGGNADYSDSVKGRFTISRDNAKTTVYLQMSSLKPEDTAVYYCIAKTKATTKWGRGIQVTVSS
26 | binds |  |  |  | binds | SR16983-R2P1C08 (VHH) VHH: QVQLVESGGGLVQPGGSLRLSCAASGRTFSNYAMGWFRQAPGKERRFVAGISRDDTSTSYADSVKGRFTILRDRSKNTVDLQMNSLKPEDTAIYYCAAARGIYGEISRYTGDYDSWGQGTQVTVSS
27 | binds |  |  |  | binds | SR16983-R2-P2-G01 (VHH) VHH: EVQLVESGGGLVQAGESLRLSCVVSGSRFRISGMGWYRQAPEKQRELVAAITRGGSTNYSDSVKGRFTISSDNAKNTVYLQMNSLKPDDTDVYYCAATVLDIPTMSTDDYWGQGTQVTVSS
